Results are given in words; binding and its absence hold for the method and conditions named. For some of these results: Binding can be weak; no strength is given.
Assays:
[1] = biological target: T1, FnBPA (194-336), FnBPAN2 (S. aureus) (UniProt P14738); test: ELISA; competition: FnBPAN2 or FnBPBN3 immobilised on microtiter plates, incubated with Plg in the presence of increasing concentrations of soluble FnBPAN2 or FnBPBN3; binding without inhibitor set to 100%; both purified
T1 sequence: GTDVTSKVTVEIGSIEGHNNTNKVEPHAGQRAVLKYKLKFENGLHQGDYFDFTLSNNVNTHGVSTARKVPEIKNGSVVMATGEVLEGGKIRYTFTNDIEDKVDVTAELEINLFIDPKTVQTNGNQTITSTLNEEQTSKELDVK

[2] = biological target: T2, full-length FnBPA on S. aureus FnBPA^(+) cells (S. aureus strain 8325-4) (UniProt P14738); test: single-cell force spectroscopy (AFM); single living S. aureus cell on a polydopamine-coated colloidal cantilever against Plg coupled to a gold substrate (NHS/EDC); PBS, 20°C, contact time 1 s, applied force 250 pN, speed 1,000 nm s^-1; without Fg; only the binder purified
T2 sequence: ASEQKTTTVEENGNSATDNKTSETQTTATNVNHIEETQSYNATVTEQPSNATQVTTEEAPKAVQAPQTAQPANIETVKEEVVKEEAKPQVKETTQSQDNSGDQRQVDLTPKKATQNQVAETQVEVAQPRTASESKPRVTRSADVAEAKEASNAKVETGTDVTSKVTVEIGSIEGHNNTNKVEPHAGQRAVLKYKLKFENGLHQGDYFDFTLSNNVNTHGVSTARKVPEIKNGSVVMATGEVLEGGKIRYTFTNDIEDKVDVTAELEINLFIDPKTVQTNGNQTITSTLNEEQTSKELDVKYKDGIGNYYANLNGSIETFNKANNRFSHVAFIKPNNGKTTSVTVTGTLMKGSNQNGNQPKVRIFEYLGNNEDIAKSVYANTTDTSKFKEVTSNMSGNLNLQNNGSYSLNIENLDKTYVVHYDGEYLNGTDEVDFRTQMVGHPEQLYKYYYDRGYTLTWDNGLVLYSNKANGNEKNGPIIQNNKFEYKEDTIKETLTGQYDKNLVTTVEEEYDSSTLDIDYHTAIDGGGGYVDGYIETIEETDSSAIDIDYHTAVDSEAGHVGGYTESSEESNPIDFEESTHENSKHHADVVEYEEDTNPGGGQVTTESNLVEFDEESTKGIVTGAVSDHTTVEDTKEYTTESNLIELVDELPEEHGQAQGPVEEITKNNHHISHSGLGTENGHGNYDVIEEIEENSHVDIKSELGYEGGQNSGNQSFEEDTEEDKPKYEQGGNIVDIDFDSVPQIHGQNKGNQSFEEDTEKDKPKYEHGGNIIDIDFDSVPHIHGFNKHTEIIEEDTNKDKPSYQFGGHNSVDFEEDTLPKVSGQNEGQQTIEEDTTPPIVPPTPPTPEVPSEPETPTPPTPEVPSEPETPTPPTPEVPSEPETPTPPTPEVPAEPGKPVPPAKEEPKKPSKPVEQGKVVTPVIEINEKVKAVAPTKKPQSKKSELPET

[3] = biological target: T2, full-length FnBPA on S. aureus FnBPA^(+) cells (S. aureus strain 8325-4); test: single-cell force spectroscopy (AFM); as a5, in the presence of 0.1 mg ml^-1 Fg in the AFM chamber; only the binder purified
[4] = biological target: T2, full-length FnBPA on S. aureus FnBPA^(+) cells (S. aureus strain 8325-4); test: single-molecule force spectroscopy (AFM); Plg on the AFM tip (PEG-benzaldehyde linker) against living S. aureus cells trapped in porous membranes; PBS, 20°C, contact time 250 ms, applied force 250 pN, speed 1,000 nm s^-1; without Fg; only the binder purified
[5] = biological target: T3, FnBPA (337-511), FnBPAN3 (S. aureus) (UniProt P14738); test: far-Western, overlay or dot blot; recombinant FnBP proteins boiled in SDS sample buffer, 12.5% PAGE, blotted on nitrocellulose, probed with 1 μg/ml Plg in PBST for 1 h at 22°C, then rabbit anti-Plg and HRP anti-rabbit IgG; both purified
T3 sequence: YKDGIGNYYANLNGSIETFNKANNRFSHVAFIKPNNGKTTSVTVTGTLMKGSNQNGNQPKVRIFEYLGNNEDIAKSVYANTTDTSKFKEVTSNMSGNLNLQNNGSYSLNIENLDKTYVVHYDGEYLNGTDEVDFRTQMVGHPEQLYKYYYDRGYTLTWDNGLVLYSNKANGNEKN

[6] = biological target: T1, FnBPA (194-336), FnBPAN2 (S. aureus); test: as above
[7] = biological target: T2, full-length FnBPA on S. aureus FnBPA^(+) cells (S. aureus strain 8325-4); test: single-molecule force spectroscopy (AFM); as a7, in the presence of 0.1 mg ml^-1 Fg in the AFM chamber; only the binder purified

For human plasminogen (Plg), the binding [1] was “binds”, the binding [2] was “binds” and the binding [3] was “binds”. The binding [4] was “binds weakly”, the binding [5] was “no binding (tested: 1 μg/ml Plg)” and the binding [6] was “binds”. The binding [7] was “binds”.
